PubChem BioAssay AID256 (DTP/NCI, 2004)
The list is a part of this screen's results and no random one: it gathers tests that were run many times, whatever their T/C, doses with no T/C, and many T/C values between a quarter and a half above the control. Other doses and runs of a compound stand elsewhere. T/C gives the treated animals as a percentage of the vehicle group. Some doses have a count of surviving animals in place of a T/C: the source holds a T/C of zero for them, seemingly a mark for toxic or unscored doses. Some survivor counts are full or nearly so, which does not show that the dose was tolerated: survival well below the control is almost never listed, so the zero probably covers shortened survival too. Counts of survivors are from the toxicity check (mostly the fifth day) where no day follows; animals may have died later. Schedules are NCI's codes, taken here to give the interval after Q, in days (D) or hours (H), and the number of doses after X. Some entries were tested several times; their values stand side by side, smallest first. Where survival is the endpoint, this PubChem deposit counts one and a half times the control or more as active, and values a quarter to a half above the control carry no call in these data; other NCI protocols may use other cut-offs. Some T/C values carry the count of animals alive at the toxicity check (mostly the fifth day); without a count, all were alive then.

Test system: CD2F1 mice, L1210 leukemia ip, survival T/C
Test: NCI In Vivo Anticancer Drug Screen. Data for tumor model L1210 Leukemia (intraperitoneal) in CD2F1 (CDF1) mice
Conditions: higher T/C = longer survival
Protocol: The antitumor activity of compounds was measured in mice bearing transplantable tumors. Survival or tumor size were measured and the results are expressed as the measurement made in the treated group (T) divided by the measurement made in the vehicle treated control group (C). The tumor model used in this assay is L1210 Leukemia (intraperitoneal) in CD2F1 (CDF1) mice

[1] = T/C endpoint: mean survival time, dose: 50.0 mg/kg/injection, schedule: Q04DX003 (ip), vehicle: saline with Tween-80
[2] = T/C endpoint: mean survival time, dose: 400.0 mg/kg/injection, schedule: Q01DX001 (ip), vehicle: Klucel (hydroxypropylcellulose) (HPC)
[3] = T/C endpoint: mean survival time, dose: 400.0 mg/kg/injection, schedule: Q01DX009 (ip), vehicle: saline with Tween-80
[4] = T/C endpoint: mean survival time, dose: 100.0 mg/kg/injection, schedule: Q04DX003 (ip), vehicle: saline with Tween-80
[5] = T/C endpoint: mean survival time, dose: 200.0 mg/kg/injection, schedule: Q04DX003 (ip), vehicle: saline with Tween-80
[6] = T/C endpoint: mean survival time, dose: 400.0 mg/kg/injection, schedule: Q04DX003 (ip), vehicle: saline with Tween-80
[7] = T/C endpoint: mean survival time, dose: 400.0 mg/kg/injection, schedule: Q04DX002 (ip), vehicle: saline
[8] = T/C endpoint: mean survival time, dose: 200.0 mg/kg/injection, schedule: Q01DX009 (ip), vehicle: saline with Tween-80
[9] = T/C endpoint: median survival time, dose: 50.0 mg/kg/injection, schedule: Q01DX009 (ip), vehicle: saline
[10] = T/C endpoint: mean survival time, dose: 150.0 mg/kg/injection, schedule: Q01DX001 (ip), vehicle: saline
[11] = T/C endpoint: mean survival time, dose: 300.0 mg/kg/injection, schedule: Q01DX001 (ip), vehicle: saline

`[CH3][Pb]([CH3])([CH3])[Cl]` was tested, and the survivor count (T/C endpoint: mean survival time, dose: 6.25 mg/kg/injection, schedule: Q01DX009 (ip), vehicle: saline) was 3 of 6, the survivor count (T/C endpoint: mean survival time, dose: 12.5 mg/kg/injection, schedule: Q01DX009 (ip), vehicle: saline) was 0 of 6 and the survivor count (T/C endpoint: mean survival time, dose: 25.0 mg/kg/injection, schedule: Q01DX009 (ip), vehicle: saline) was 0 of 6. For the same compound, the survivor count (T/C endpoint: mean survival time, dose: 25.0 mg/kg/injection, schedule: Q04DX002 (ip), vehicle: saline) was 0 of 3, the survivor count (T/C endpoint: mean survival time, dose: 50.0 mg/kg/injection, schedule: Q01DX009 (ip), vehicle: saline) was 0 of 6 and the survivor count (T/C endpoint: mean survival time, dose: 50.0 mg/kg/injection, schedule: Q04DX002 (ip), vehicle: saline) was 0 of 3. For the same compound, the survivor count (T/C endpoint: mean survival time, dose: 100.0 mg/kg/injection, schedule: Q04DX002 (ip), vehicle: saline with Tween-80) was 0 of 3, the survivor count (T/C endpoint: mean survival time, dose: 200.0 mg/kg/injection, schedule: Q04DX002 (ip), vehicle: saline with Tween-80) was 0 of 3 and the survivor count (T/C endpoint: mean survival time, dose: 400.0 mg/kg/injection, schedule: Q04DX002 (ip), vehicle: saline with Tween-80) was 0 of 3.

With `O=C1c2ccccc2C(=O)c2c(O)c(S(=O)(=O)O)cc(O)c21` the survivor count (T/C endpoint: mean survival time, dose: 400.0 mg/kg/injection, schedule: Q04DX003 (ip), vehicle: saline) was 3 of 6.

In the case of `COC(=O)c1ccccc1N1C(=O)C=CC1=O`, the survivor count [1] was 3 of 6.

In the case of `CC(=O)Nc1nc(CCl)cs1`, the survivor count [2] was 0 of 3.

For `O=NN1C(=O)C2CC3CC(C2)CC1C3`, the survivor count (T/C endpoint: mean survival time, dose: 25.0 mg/kg/injection, schedule: Q04DX003 (ip), vehicle: acetone) was 6 of 6 and the survivor count (T/C endpoint: mean survival time, dose: 50.0 mg/kg/injection, schedule: Q04DX003 (ip), vehicle: acetone) was 2 of 6.

`COc1ccc2c(c1)C(=O)C(Br)CC2` (centres undefined) was tested, and the survivor count [3] was 0 of 3 and 0 of 6.

With `O=C(C=C(C(F)(F)F)C(F)(F)F)c1cccc([N+](=O)[O-])c1` the survivor count [1] was 2 of 6, the survivor count [4] was 3 of 6 and the survivor count [5] was 1 of 6. The survivor count [6] was 0 of 6.

In the case of `C1OC1C1CO1` (centres undefined), the survivor count (T/C endpoint: mean survival time, dose: 40.0 mg/kg/injection, schedule: Q01DX009 (ip), vehicle: saline) was 3 of 6.

`O=[N+]([O-])c1ccc(Cl)c(CCl)c1` was tested, and the survivor count [3] was 4 of 6.

`CC(CNCCN)C[Si](C)(C)C` (centres undefined) was tested, and the survivor count [1] was 2 of 6, the survivor count [4] was 0 of 6 and the survivor count [5] was 0 of 6.

For `NNC(=S)Nc1ccccc1`, the survivor count (T/C endpoint: mean survival time, dose: 40.0 mg/kg/injection, schedule: Q04DX003 (ip), vehicle: saline with Tween-80) was 3 of 6 and the survivor count (T/C endpoint: mean survival time, dose: 80.0 mg/kg/injection, schedule: Q04DX003 (ip), vehicle: saline with Tween-80) was 0 of 6.

In the case of `COc1ccccc1N=O`, the survivor count (T/C endpoint: mean survival time, dose: 100.0 mg/kg/injection, schedule: Q01DX001 (ip), vehicle: Klucel (hydroxypropylcellulose) (HPC)) was 0 of 3, the survivor count (T/C endpoint: mean survival time, dose: 200.0 mg/kg/injection, schedule: Q01DX001 (ip), vehicle: Klucel (hydroxypropylcellulose) (HPC)) was 0 of 3 and the survivor count [2] was 0 of 3.

With `CCN(CC)Cc1ccccc1COC(=O)c1ccccc1` the survivor count [7] was 0 of 3.

`C#CC(C)(C)OCC(CCl)OC(N)=O` (centres undefined) was tested, and the survivor count [3] was 0 of 6.

For `COc1ccc(NC(=O)Oc2ccc(Cl)c(C)c2)cc1`, the survivor count [8] was 6 of 6.

With `C[N+](C)(C)CC(=O)N/N=C\c1c(O)ccc2ccccc12` the survivor count [5] was 2 of 3 and the survivor count [6] was 0 of 3.

For `O=C1/C(=C/c2ccc([N+](=O)[O-])cc2)CCc2ccccc21`, the survivor count (T/C endpoint: mean survival time, dose: 400.0 mg/kg/injection, schedule: Q01DX009 (ip), vehicle: Klucel (hydroxypropylcellulose) (HPC)) was 5 of 6.

With `C(=N/NC1=NCCN1)/c1c2ccccc2c(/C=N\NC2=NCCN2)c2ccccc12` the T/C (T/C endpoint: median survival time, dose: 0.75 mg/kg/injection, schedule: Q01DX009 (ip), vehicle: suspension in saline) was 139 % of control, the T/C (T/C endpoint: median survival time, dose: 0.78 mg/kg/injection, schedule: Q01DX009 (ip), vehicle: saline) was 148 % of control and the T/C (T/C endpoint: median survival time, dose: 1.5 mg/kg/injection, schedule: Q01DX009 (ip), vehicle: suspension in saline) was 134 % of control. The T/C (T/C endpoint: median survival time, dose: 1.56 mg/kg/injection, schedule: Q01DX009 (ip), vehicle: saline) was 128 % of control, the T/C (T/C endpoint: median survival time, dose: 3.12 mg/kg/injection, schedule: Q01DX009 (ip), vehicle: saline) was 137 % of control and the T/C (T/C endpoint: median survival time, dose: 6.0 mg/kg/injection, schedule: Q01DX009 (ip), vehicle: suspension in saline) was 149 % of control. The T/C (T/C endpoint: median survival time, dose: 6.25 mg/kg/injection, schedule: Q01DX009 (ip), vehicle: saline) was 132 % of control, the T/C (T/C endpoint: median survival time, dose: 12.0 mg/kg/injection, schedule: Q01DX009 (ip), vehicle: suspension in saline) was 137 % of control and the T/C (T/C endpoint: median survival time, dose: 24.0 mg/kg/injection, schedule: Q01DX009 (ip), vehicle: suspension in saline) was 141 % of control. The T/C (T/C endpoint: median survival time, dose: 25.0 mg/kg/injection, schedule: Q01DX009 (ip), vehicle: saline) was 130 % of control and the T/C [9] was 132 % of control.

`Cc1ccccc1N1C(=O)CSC1=S` was tested, and the survivor count [3] was 3 of 6.

For `CCCCCCCCCCCCCCCC(=O)N1CCC(N2CCCCC2)CC1`, the survivor count [6] was 6 of 6.

For `CN=C(N)N/N=C(\c1ccccc1)c1ccc(Br)cc1`, the survivor count [9] was 4 of 6.

For `CC[N+]1(C2CCC3CCC2C3O)CCOCC1` (centres undefined), the survivor count (T/C endpoint: mean survival time, dose: 200.0 mg/kg/injection, schedule: Q01DX001 (ip), vehicle: saline with Tween-80) was 3 of 6 and the survivor count (T/C endpoint: mean survival time, dose: 400.0 mg/kg/injection, schedule: Q01DX001 (ip), vehicle: saline with Tween-80) was 1 of 6.

In the case of `c1ccc(-c2csc3c4ccccc4c4ccccc4[n+]23)cc1`, the survivor count (T/C endpoint: mean survival time, dose: 75.0 mg/kg/injection, schedule: Q01DX001 (ip), vehicle: saline) was 0 of 6, the survivor count [10] was 0 of 6 and the survivor count [11] was 0 of 6.

With `COc1ccc2c(c1)OC(C)(C)C(c1ccccc1)=C2c1ccc(OCCN2CCCC2)cc1` the survivor count [10] was 0 of 6 and the survivor count [11] was 0 of 6.

In the case of `NCc1cccc(-c2nc3ncnc(N)c3[nH]2)c1`, the survivor count (T/C endpoint: mean survival time, dose: 200.0 mg/kg/injection, schedule: Q01DX009 (ip), vehicle: saline) was 0 of 3.

`Nc1nc(OCc2ccccc2)ncc1C(=O)NCC(=O)O` was tested, and the survivor count (T/C endpoint: mean survival time, dose: 100.0 mg/kg/injection, schedule: Q01DX009 (ip), vehicle: saline with Tween-80) was 3 of 6, the survivor count [8] was 1 of 6 and the survivor count [3] was 1 of 6.

With `NC(=O)c1ncn(C2CCCC2)c1N` the survivor count (T/C endpoint: mean survival time, dose: 100.0 mg/kg/injection, schedule: Q01DX001 (ip), vehicle: other) was 0 of 6, the survivor count (T/C endpoint: mean survival time, dose: 200.0 mg/kg/injection, schedule: Q01DX001 (ip), vehicle: other) was 0 of 6 and the survivor count (T/C endpoint: mean survival time, dose: 400.0 mg/kg/injection, schedule: Q01DX001 (ip), vehicle: other) was 0 of 6.

`O=C(CCOP(=O)(NCCCl)NCCCl)c1ccccc1` was tested, and the T/C (T/C endpoint: median survival time, dose: 62.5 mg/kg/injection, schedule: Q01DX001 (ip), vehicle: saline with Tween-80) was 142 % of control, the T/C (T/C endpoint: median survival time, dose: 125.0 mg/kg/injection, schedule: Q01DX001 (ip), vehicle: saline with Tween-80) was 138 % of control and the survivor count (T/C endpoint: median survival time, dose: 500.0 mg/kg/injection, schedule: Q01DX001 (ip), vehicle: saline with Tween-80) was 4 of 6.

For `CCOC(=O)Cc1ccnc(C)c1`, the survivor count [3] was 2 of 6.

For `CCCC(CCC)NCCO`, the survivor count [11] was 0 of 6.

`CCn1cnccc1=O` was tested, and the T/C [7] was 132 % of control [2 of 3 alive].

`Cc1ccc(S(=O)(=O)O)cc1.Cc1ccc(S(=O)(=O)O)cc1.[NH-]C1CCCCC1[NH-].[Pt+2]` was tested, and the T/C (T/C endpoint: mean survival time, dose: 0.5 mg/kg/injection, schedule: Q04DX003 (ip), vehicle: other) was 132 % of control and the T/C (T/C endpoint: mean survival time, dose: 1.0 mg/kg/injection, schedule: Q04DX003 (ip), vehicle: other) was 144 % of control.

`O=C1C2C(C(=O)N1c1ccc(OCc3ccccc3)cc1)C1c3ccccc3C2C2CCCCN21` (centres undefined) was tested, and the survivor count (T/C endpoint: mean survival time, dose: 100.0 mg/kg/injection, schedule: Q01DX009 (ip), vehicle: water) was 0 of 6, the survivor count (T/C endpoint: mean survival time, dose: 200.0 mg/kg/injection, schedule: Q01DX009 (ip), vehicle: water) was 0 of 6 and the survivor count (T/C endpoint: mean survival time, dose: 400.0 mg/kg/injection, schedule: Q01DX009 (ip), vehicle: water) was 0 of 6.
